Laboratory results from patent publication US20020127541A1.
These are yes or no findings as the source states them, for the method shown. Binding seen in cells or lysates may run through a third protein. Some results given as binding are weak or reduced against the parent protein; the word gives no strength.

By UniProt entry, the sequences of proteins in these tests, tags left out. Residues count along the entry.
UniProt P35222, residues 2-781: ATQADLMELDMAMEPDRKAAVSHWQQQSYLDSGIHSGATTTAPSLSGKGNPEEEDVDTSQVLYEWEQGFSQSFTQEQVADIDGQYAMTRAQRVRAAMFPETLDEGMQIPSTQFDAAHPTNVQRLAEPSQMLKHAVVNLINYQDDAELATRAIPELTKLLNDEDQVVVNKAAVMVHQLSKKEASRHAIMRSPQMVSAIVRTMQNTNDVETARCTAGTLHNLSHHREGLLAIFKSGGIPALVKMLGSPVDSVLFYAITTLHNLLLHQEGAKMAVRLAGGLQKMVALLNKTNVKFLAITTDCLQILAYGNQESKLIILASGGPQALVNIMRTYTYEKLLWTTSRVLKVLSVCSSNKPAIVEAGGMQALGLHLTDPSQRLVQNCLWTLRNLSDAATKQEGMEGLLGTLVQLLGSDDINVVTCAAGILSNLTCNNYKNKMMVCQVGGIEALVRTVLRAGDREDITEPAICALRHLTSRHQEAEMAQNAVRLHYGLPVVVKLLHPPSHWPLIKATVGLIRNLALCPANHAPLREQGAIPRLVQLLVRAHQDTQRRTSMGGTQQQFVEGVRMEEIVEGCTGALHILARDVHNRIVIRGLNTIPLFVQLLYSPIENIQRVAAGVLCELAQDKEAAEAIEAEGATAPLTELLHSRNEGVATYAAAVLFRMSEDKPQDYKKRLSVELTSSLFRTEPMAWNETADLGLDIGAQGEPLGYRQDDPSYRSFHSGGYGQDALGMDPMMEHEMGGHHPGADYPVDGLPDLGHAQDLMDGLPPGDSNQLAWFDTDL

Target: wild type PS2 (human) (UniProt P49810)
Assay: co-immunoprecipitation, Western blot

binding: binds
Substance: endogenous β-catenin (from UniProt P35222 2-781)
